Results are given in words; binding and its absence hold for the method and conditions named. In cells and extracts the contact can be indirect. For some assays here: Binding calls can cover weak binding; strength is not graded here.

Chains of the proteins cited; added tags and fusions are not shown.
UniProt Q9Y297: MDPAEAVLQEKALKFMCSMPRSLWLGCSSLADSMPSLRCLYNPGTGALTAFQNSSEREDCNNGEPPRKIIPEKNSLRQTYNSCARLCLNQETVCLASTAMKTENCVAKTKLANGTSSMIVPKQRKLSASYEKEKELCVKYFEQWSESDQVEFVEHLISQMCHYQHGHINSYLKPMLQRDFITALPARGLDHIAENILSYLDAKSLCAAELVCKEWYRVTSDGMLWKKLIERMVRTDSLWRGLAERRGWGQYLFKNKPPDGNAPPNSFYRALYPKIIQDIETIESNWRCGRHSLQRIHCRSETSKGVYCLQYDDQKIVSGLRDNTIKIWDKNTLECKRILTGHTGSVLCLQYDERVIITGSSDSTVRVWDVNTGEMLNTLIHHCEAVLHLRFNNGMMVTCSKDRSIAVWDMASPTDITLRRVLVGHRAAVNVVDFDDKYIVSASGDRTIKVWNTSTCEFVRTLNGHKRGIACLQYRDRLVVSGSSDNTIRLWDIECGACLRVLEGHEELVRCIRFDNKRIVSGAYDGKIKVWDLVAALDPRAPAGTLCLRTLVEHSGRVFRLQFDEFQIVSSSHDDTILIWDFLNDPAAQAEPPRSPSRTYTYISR
UniProt P35221: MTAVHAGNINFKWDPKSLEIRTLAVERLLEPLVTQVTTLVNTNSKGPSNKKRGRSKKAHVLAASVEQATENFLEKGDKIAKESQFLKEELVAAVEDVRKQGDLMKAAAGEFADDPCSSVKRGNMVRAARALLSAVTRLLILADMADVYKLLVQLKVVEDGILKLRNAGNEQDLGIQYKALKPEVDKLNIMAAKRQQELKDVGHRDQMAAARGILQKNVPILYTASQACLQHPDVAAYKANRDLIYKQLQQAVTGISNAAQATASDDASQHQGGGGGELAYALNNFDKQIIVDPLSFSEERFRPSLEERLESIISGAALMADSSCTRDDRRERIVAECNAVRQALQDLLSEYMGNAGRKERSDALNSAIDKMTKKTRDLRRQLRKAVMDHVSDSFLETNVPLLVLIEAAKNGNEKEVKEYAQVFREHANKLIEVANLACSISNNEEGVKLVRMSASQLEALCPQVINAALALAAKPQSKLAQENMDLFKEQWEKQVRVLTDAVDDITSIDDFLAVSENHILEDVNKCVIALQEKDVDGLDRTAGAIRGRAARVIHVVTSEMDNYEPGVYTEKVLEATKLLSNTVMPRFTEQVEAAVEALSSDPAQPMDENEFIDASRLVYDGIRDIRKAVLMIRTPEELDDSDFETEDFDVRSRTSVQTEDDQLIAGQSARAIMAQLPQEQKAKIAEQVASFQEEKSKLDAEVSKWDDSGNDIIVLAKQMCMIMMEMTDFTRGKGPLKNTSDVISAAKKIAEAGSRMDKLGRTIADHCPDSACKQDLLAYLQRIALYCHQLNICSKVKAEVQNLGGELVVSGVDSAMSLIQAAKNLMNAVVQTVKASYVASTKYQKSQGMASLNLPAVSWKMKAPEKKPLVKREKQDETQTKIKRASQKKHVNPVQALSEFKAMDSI

The target of one assay is β-Trcp (UniProt Q9Y297). As to the kind of experiment: co-IP; HEK293T cells co-transfected with 6Myc-Smed-β-catenin and a flag-tagged partner; lysis buffer 50 mM Tris-HCl pH 7.4, 300 mM NaCl, 1 mM EDTA, 1% NP-40; lysate with FLAG-M2 beads at 4°C for 6 h; immunoblot with anti-Myc or anti-Flag. (Immunoblotting shows a protein as a band on a membrane.)
Another assay addresses α-catenin (UniProt P35221). The assay is described as above.

As to “Smed-β-catenin3 (from UniProt A0A291LM11)”, the binding result is on record as “binds” with β-Trcp and “no binding” with α-catenin.

The values are drawn from article PMC5643146.
